Reference: patent publication US20230277630A1, “METHODS AND COMPOSITIONS FOR TREATING AMYOTROPHIC LATERAL SCLEROSIS” (Amylyx Pharmaceuticals, Inc., priority 2022, published 2023)
Values joined by “and” are separate entries in the source; they are usually repeats but may differ in a detail not shown here. Identical values can stand only once.

Columns and labels:
[1] = target: T1, OATP1B3 (Homo sapiens, UniProt Q9NPD5); assay: OATP1B3 inhibitor (IC50) assessment, atorvastatin uptake in transfected HEK cells; conditions: absence of TUDCA and PB or rifamycin SV
T1 sequence (Q9NPD5 1-702): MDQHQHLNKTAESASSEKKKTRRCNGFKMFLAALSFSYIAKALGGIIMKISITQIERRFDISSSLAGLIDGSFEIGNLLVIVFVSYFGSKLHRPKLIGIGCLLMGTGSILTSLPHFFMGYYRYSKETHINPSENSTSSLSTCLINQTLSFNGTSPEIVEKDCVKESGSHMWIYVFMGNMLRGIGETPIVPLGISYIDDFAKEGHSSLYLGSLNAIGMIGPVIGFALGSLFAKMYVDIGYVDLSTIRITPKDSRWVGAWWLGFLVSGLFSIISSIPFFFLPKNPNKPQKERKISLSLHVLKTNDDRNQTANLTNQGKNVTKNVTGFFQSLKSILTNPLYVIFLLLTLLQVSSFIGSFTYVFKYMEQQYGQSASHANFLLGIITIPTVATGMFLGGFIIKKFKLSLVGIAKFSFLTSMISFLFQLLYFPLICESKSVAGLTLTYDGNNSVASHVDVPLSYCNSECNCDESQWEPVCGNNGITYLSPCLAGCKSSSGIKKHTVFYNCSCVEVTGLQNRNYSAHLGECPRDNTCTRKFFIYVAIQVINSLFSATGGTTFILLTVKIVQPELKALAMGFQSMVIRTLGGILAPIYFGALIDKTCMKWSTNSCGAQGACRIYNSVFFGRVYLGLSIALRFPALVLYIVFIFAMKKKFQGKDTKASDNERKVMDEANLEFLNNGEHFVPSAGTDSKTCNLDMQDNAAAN

[2] = target: T2, OATP1B1 (Homo sapiens, UniProt Q9Y6L6); assay: OATP1B1 inhibitor (IC50) assessment, atorvastatin uptake in transfected HEK cells; conditions: absence of TUDCA and PB or rifamycin SV
T2 sequence (Q9Y6L6 1-691): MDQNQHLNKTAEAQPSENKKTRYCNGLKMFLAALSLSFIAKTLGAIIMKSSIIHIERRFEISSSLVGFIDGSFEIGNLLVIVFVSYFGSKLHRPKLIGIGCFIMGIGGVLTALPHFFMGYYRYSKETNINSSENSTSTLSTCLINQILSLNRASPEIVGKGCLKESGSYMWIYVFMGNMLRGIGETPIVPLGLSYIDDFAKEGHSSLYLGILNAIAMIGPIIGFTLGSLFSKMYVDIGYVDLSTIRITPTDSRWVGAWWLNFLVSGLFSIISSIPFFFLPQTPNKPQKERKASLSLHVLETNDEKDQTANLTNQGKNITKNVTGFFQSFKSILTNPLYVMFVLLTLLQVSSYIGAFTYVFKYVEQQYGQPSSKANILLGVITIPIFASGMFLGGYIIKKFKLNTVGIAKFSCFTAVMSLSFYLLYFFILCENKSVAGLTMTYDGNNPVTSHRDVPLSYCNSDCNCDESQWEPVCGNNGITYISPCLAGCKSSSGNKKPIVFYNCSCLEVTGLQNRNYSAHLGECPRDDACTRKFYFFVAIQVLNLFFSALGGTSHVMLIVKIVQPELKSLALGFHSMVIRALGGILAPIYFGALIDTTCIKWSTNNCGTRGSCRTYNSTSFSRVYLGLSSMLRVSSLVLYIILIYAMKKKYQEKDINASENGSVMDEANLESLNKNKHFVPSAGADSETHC

[3] = target: T3, OAT3 (Homo sapiens, UniProt Q8TCC7); assay: OAT3 inhibitor (IC50) assessment, furosemide uptake in transfected HEK cells
T3 sequence (Q8TCC7 1-542): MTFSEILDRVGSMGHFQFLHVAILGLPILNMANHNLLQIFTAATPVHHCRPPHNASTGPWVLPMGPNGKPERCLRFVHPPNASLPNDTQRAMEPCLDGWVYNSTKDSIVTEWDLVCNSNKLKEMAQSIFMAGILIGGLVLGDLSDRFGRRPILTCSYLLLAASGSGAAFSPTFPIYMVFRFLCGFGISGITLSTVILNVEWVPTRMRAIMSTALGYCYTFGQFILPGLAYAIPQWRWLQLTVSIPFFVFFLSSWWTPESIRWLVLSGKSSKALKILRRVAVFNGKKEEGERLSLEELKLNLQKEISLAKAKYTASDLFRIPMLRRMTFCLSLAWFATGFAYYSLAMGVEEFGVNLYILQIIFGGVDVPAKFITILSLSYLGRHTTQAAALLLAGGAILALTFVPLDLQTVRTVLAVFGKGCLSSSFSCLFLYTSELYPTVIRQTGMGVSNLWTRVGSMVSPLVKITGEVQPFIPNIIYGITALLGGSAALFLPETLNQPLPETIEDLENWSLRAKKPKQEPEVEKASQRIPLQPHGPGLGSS

[4] = 5 μM Furosemide alone, 5 min, replicates 1, 2 and Average

influx rate ratio of atorvastatin (OATP1B3 over vector control) [1] | influx rate ratio of atorvastatin (OATP1B1 over vector control) [2] | Net Influx Rate of Furosemide (OAT3) ([3]; 5 μM Furosemide alone) [pmol/mg protein/minute] | influx rate ratio of furosemide (OAT3 over vector control) ([3]; 5 μM Furosemide alone) | influx rate ratio of furosemide (OAT3 over vector control) ([3]; absence of TUDCA and PB or probenecid) | SMILES | Influx Rate of Furosemide, OAT3-HEK Cells [3, 4] | Influx Rate of Furosemide, Vector Control Cells [3, 4]
8.23 | 15.1 |  |  |  | CC(C)c1c(C(=O)Nc2ccccc2)c(-c2ccccc2)c(-c2ccc(F)cc2)n1CC[C@@H](O)C[C@@H](O)CC(=O)O [atorvastatin] |  | 
 |  | 42.5 | 20.1 | 20.1 | NS(=O)(=O)c1cc(C(=O)O)c(NCc2ccco2)cc1Cl [furosemide] | 47.3 pmol/mg protein/minute and 44.8 pmol/mg protein/minute and 42.2 pmol/mg protein/minute | 1.98 pmol/mg protein/minute and 2.23 pmol/mg protein/minute and 2.47 pmol/mg protein/minute
